Test results published in ChEMBL document CHEMBL3745705, “Discovery of Oral VEGFR-2 Inhibitors with Prolonged Ocular Retention That Are Efficacious in Models of Wet Age-Related Macular Degeneration” (J Med Chem, 2015).
Converted amounts (≈) assume the structure as drawn.

Experiment: Aqueous solubility of the compound at pH 6.8
Settings: buffer

SMILES | solubility [µM]
C[C@H]1Cc2c(ncnc2Oc2ccc3c(ccn3C(=O)Nc3cc(C4(C)CC4)n[nH]3)c2)CN1 | 450 (≈ 200 µg/mL)
C[C@H]1Cc2c(ncnc2Oc2ccc3c(ccn3C(=O)Nc3cc(C(C)(C)C)on3)c2)CN1 | 126 (≈ 56.3 µg/mL)
